The text below walks through data of article PMC7819943, “Rice protein-binding microarrays: a tool to detect cis-acting elements near promoter regions in rice”.

Protein sequences, listed by entry. Tags and fused reporters are not part of them.
UniProt Q0JBA9, entry or part of it: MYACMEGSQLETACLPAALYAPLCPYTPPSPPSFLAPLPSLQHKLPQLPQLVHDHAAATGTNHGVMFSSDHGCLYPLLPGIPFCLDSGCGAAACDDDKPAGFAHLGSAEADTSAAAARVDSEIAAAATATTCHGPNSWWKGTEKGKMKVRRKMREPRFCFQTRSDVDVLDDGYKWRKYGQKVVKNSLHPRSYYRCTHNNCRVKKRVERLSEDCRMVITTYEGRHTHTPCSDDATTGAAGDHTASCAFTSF

This is one part of the list.

The target of this assay is OsWRKY34 (Oryza sativa, UniProt Q0JBA9 1-250). The experiment in a line: protein-binding microarray (RPBM); PBS, 2% BSA, 51.3 ng/ul salmon testes DNA, 50 uM zinc acetate, 200 nM TF, 25 C, 1 h; high values mean tight binding. To be noted: protein: recombinant; tags: N-terminal polyhistidine and DsRed monomer fusion (pET32a); label: CyDye5-dUTP incorporated in the synthesized complementary strand; 3' TTTTT single-stranded linker to array surface; dsDNA, one strand shown. The method in brief:
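Polyhistidine-tagged DsRed fusions of transcription factors, joined at the N-terminus, were expressed in E. coli BL21-CodonPlus and isolated on Ni–NTA. They were incubated at 200 nM for 1 h at 25 °C on a custom Agilent array, double-stranded and BSA-blocked, in PBS with 2% BSA, salmon testes DNA and 50 µM zinc acetate. The binding signal is per-feature fluorescence intensity (arbitrary units) read on an Axon 4000B scanner after washing.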
Take “CACACGCTACCCCGACTCGTCGCCTTCGCCTTGCTCGTCTCGGAGTCACCTAGTGCAG”: the binding signal was 18000 fluorescence intensity (a.u.).

On to “TCCAGTTTATCTCACTTCTAGTTTATTTTTCTTCTAAAATCGGAGTCACCTAGTGCAG”, for which the binding signal was 9090 fluorescence intensity (a.u.).

As for “GACCACAGCTGCACCCACACACCCACCTTGCTCTTTCTCGCGGAGTCACCTAGTGCAG”, the binding signal is 8170 fluorescence intensity (a.u.).

With “GCAATGTTGGGCTGTGGGTAATTATTTTGATCAAAAGTCACGGAGTCACCTAGTGCAG”, the binding signal was 11900 fluorescence intensity (a.u.).

As to “TTGGATGGAAGGCCAAACATATGCACTGTTTATTTTTCTGCGGAGTCACCTAGTGCAG”, the binding signal is 8210 fluorescence intensity (a.u.).

As to “GTGGCTGAGGTGTGTTGTCCGATATTTCTCTTCCCATCCGCGGAGTCACCTAGTGCAG”, the binding signal was 8500 fluorescence intensity (a.u.).

For “TTGACTTTTTATTAACGTTTGACCATTTGTTTTATTTAAACGGAGTCACCTAGTGCAG”, the binding signal is 12000 fluorescence intensity (a.u.).

Turning to “AAACAGGTAGAAGGAGGGAGGGGAAGGTGGGAGCGAATATCGGAGTCACCTAGTGCAG”, the binding signal was 9720 fluorescence intensity (a.u.).

For the sequence “CCTCGGTTGTTTTGTGCTGAGAGTGATTTTGGTGTGAATACGGAGTCACCTAGTGCAG”, the binding signal is 8540 fluorescence intensity (a.u.).

On to “AGTTGAGGGACCTTAGGTGTACTCTTTCCTTTTGTCCATTCGGAGTCACCTAGTGCAG”, for which the binding signal was 11100 fluorescence intensity (a.u.).

Consider “CCTCCCACGGCATCCTCCCGCGCACTCTACGTCTCTACTGCGGAGTCACCTAGTGCAG”, for which the binding signal is 8120 fluorescence intensity (a.u.).

With “TTCTTCCTCCTGGTAGATGGTTGGTCACATTGGTCAAGATCGGAGTCACCTAGTGCAG”, the binding signal was 10900 fluorescence intensity (a.u.).

Consider “CTCGTTGGTCTCCTCTCTCTCTCTGTGTTCTTGGTGTTCCCGGAGTCACCTAGTGCAG”, for which the binding signal was 9580 fluorescence intensity (a.u.).

In the case of “AAACCACCCCACCTTGCATACTATGTTCATCCTCGTGTCACGGAGTCACCTAGTGCAG”, the binding signal was 10100 fluorescence intensity (a.u.).

For the sequence “CCATCCACCGCCGCCTCCGCTCTCTCTTCTTCTTCTTCCTCGGAGTCACCTAGTGCAG”, the binding signal is 10800 fluorescence intensity (a.u.).

Take “ACACGTAATGGATACTTTTGCCGAAGTGAACACATGCTTTCGGAGTCACCTAGTGCAG”: the binding signal is 8940 fluorescence intensity (a.u.).

Regarding “ACTTTGACTAGGGTTGGACTAATATATCTCTCTCCCTCACCGGAGTCACCTAGTGCAG”, the binding signal was 9740 fluorescence intensity (a.u.).

For “GGACCTGTTTGTTTGTTTTTTGTTTTACTTCTTCTAATATCGGAGTCACCTAGTGCAG”, the binding signal is 12500 fluorescence intensity (a.u.).

Consider “ACTCCACTTTCTCGCCTCTACTGTTTGCCATGGCCCAAATCGGAGTCACCTAGTGCAG”, for which the binding signal is 15600 fluorescence intensity (a.u.).

Consider “CACTTTGTTTTTTTCTCTGCATCGTCGTCGTACCTAGCACCGGAGTCACCTAGTGCAG”, for which the binding signal was 8630 fluorescence intensity (a.u.).

In the case of “ATCACGGGTGGGGCGTCGGATCTCGCGATCACGGGCGGGCCGGAGTCACCTAGTGCAG”, the binding signal is 11800 fluorescence intensity (a.u.).

In the case of “AGTTTTATTTCTCATAATGTATCCTAATTTTTAGCCTAATCGGAGTCACCTAGTGCAG”, the binding signal was 8660 fluorescence intensity (a.u.).

As for “CATGCCACTCTCCGTCAGTTGACCGTGTGTTGACCATTAACGGAGTCACCTAGTGCAG”, the binding signal is 13400 fluorescence intensity (a.u.).

On to “AGCTCATTTGTTTGTTTGTTTGTTTTTGTGTGTGTCGAAGCGGAGTCACCTAGTGCAG”, for which the binding signal is 9050 fluorescence intensity (a.u.).

For “TTCCCCAATCTCCCGCGCGCTTGCTCTTCCTGGGCTTTTTCGGAGTCACCTAGTGCAG”, the binding signal was 9230 fluorescence intensity (a.u.).

Regarding “TTAAAAAAAGTTGGGTAATTGTGGGGTTTGTTTTTTCTCCCGGAGTCACCTAGTGCAG”, the binding signal was 9490 fluorescence intensity (a.u.).

On to “TTTCACTCTACCCATTCCACATTACCGATTCTCGTGAAGCCGGAGTCACCTAGTGCAG”, for which the binding signal is 9420 fluorescence intensity (a.u.).

As to “ATACGCCATACTCATGTACCATCCATTTTGTCCTTTAAAACGGAGTCACCTAGTGCAG”, the binding signal was 11200 fluorescence intensity (a.u.).

Take “ATTCGCCATTTCCGCCCACTGCCACGCCAACGCCACTGCTCGGAGTCACCTAGTGCAG”: the binding signal was 8280 fluorescence intensity (a.u.).

With “ATTGTAATCTAACGGTGTAGCTTTTTTCTCTTTTCTTCGACGGAGTCACCTAGTGCAG”, the binding signal is 8190 fluorescence intensity (a.u.).

In the case of “TAACTCCATTGACTATTTAGCATATCTTTGACCATTCGTCCGGAGTCACCTAGTGCAG”, the binding signal was 13700 fluorescence intensity (a.u.).

For “GTTCTTTCCTTCCTCGTGAGGGTTCTTGCTTCTTGGCTTCCGGAGTCACCTAGTGCAG”, the binding signal was 12600 fluorescence intensity (a.u.).

Take “CTTTTGGGGTGGAACTGGTATAAGTTTGACTTTTGGGGAACGGAGTCACCTAGTGCAG”: the binding signal is 14700 fluorescence intensity (a.u.).

Turning to “CGGGGAGGGATTCTAATTAGTCAAGTGAAAGTCCACTCATCGGAGTCACCTAGTGCAG”, the binding signal was 10900 fluorescence intensity (a.u.).

On to “GCCTGCAGATCAAGCCAGGAGCTTCTTGAATTTCTTCTCTCGGAGTCACCTAGTGCAG”, for which the binding signal was 8710 fluorescence intensity (a.u.).

“GCGCGGGCAGCGTCGGCATTAGAGGGGTGGTGGCGGGCGGCGGAGTCACCTAGTGCAG”: the binding signal was 10500 fluorescence intensity (a.u.).

As for “TTTTTGTTTCTATTGGAGGTTGTCATGTTTATCTACCTTTCGGAGTCACCTAGTGCAG”, the binding signal was 9650 fluorescence intensity (a.u.).

As to “GCTTGCGAGCCTAGGCCATCGTGTGTTTATATTGATTATTCGGAGTCACCTAGTGCAG”, the binding signal is 8450 fluorescence intensity (a.u.).

On to “CATGCCCTTTGAGACTTTGATCGAGTGCATGCTTAATTACCGGAGTCACCTAGTGCAG”, for which the binding signal is 9550 fluorescence intensity (a.u.).

As to “TTATCTCCTCGGCTTTTCTCGTCTCGTTCTCTCCTCCCTACGGAGTCACCTAGTGCAG”, the binding signal is 10500 fluorescence intensity (a.u.).

With “GCCCTTCTATGTGATATTCTCTTTCTGATCGAGTTATTATCGGAGTCACCTAGTGCAG”, the binding signal is 10700 fluorescence intensity (a.u.).

In the case of “AGTATGCAGAACTGCCATCTCTTATTAGTACCAACTATATCGGAGTCACCTAGTGCAG”, the binding signal is 10200 fluorescence intensity (a.u.).

As for “CTTCTACTGCGTCGACTTGGAATTTTGCCGAATCTTTTTTCGGAGTCACCTAGTGCAG”, the binding signal is 10400 fluorescence intensity (a.u.).

For the sequence “AACGCTGAACCTTCTGTCCTCTTACCTTAGTAAGTATTGCCGGAGTCACCTAGTGCAG”, the binding signal is 10900 fluorescence intensity (a.u.).

Consider “GGGTCAGTTGATTGGTCGAGTTGAGGATGGCGGTGTTATACGGAGTCACCTAGTGCAG”, for which the binding signal was 9040 fluorescence intensity (a.u.).

As for “TAATATCTTGTGTAGTCTCACCGTGCATGTTTATTTTTTTCGGAGTCACCTAGTGCAG”, the binding signal was 10800 fluorescence intensity (a.u.).

Regarding “GCAATTCTCTCCCACTTCCGATCTCTTCTTCCGCTTGGACCGGAGTCACCTAGTGCAG”, the binding signal is 8130 fluorescence intensity (a.u.).

Turning to “CAGCGCCGCCGCCACCACCACCACCGCTTCGTCGTCTCTCCGGAGTCACCTAGTGCAG”, the binding signal is 10700 fluorescence intensity (a.u.).

Consider “TCTTTCGAGTTTTCTTATTATATGTTTCACCCGAATCTTTCGGAGTCACCTAGTGCAG”, for which the binding signal is 9260 fluorescence intensity (a.u.).

For “ACTCCGCTGTATATATATCTTCCTTTTCCTTTCTTTCTCTCGGAGTCACCTAGTGCAG”, the binding signal was 11000 fluorescence intensity (a.u.).

Consider “ACCTGAAATCCCGCTTTGTCATTGGGTACGTTGTGTCATCCGGAGTCACCTAGTGCAG”, for which the binding signal was 9460 fluorescence intensity (a.u.).

For “GTTTTTCGTCGCTTCTCTTCTTGAAGACGTCGTTTTGGCACGGAGTCACCTAGTGCAG”, the binding signal is 8370 fluorescence intensity (a.u.).

Regarding “ATGCTTGCTTGCCTGCCTTATCTGCGTCTTGAATTGCATCCGGAGTCACCTAGTGCAG”, the binding signal was 10100 fluorescence intensity (a.u.).

As to “GCATTGGTCATGTCATGTGGGCCACTTAAACGTGTGATTACGGAGTCACCTAGTGCAG”, the binding signal was 8260 fluorescence intensity (a.u.).
